# The list shows a part of the results.
# Protein sequences, listed by entry. Tags and fused reporters are not part of them.
# UniProt Q0JBA9, entry or part of it: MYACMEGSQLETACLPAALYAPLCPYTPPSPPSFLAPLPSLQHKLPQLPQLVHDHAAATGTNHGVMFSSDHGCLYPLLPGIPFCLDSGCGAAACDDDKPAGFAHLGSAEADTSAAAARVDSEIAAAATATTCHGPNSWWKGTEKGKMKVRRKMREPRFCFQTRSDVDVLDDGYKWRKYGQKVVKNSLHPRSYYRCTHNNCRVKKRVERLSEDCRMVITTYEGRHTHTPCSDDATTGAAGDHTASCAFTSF
# Target: OsWRKY34 (Oryza sativa, UniProt Q0JBA9 1-250)
# Test: protein-binding microarray (RPBM); PBS, 2% BSA, 51.3 ng/ul salmon testes DNA, 50 uM zinc acetate, 200 nM TF, 25 C, 1 h; high values mean tight binding
# Conditions: protein: recombinant; tags: N-terminal polyhistidine and DsRed monomer fusion (pET32a); label: CyDye5-dUTP incorporated in the synthesized complementary strand; 3' TTTTT single-stranded linker to array surface; dsDNA, one strand shown
# How it was run: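 Binding signal is reported as fluorescence intensity per feature (arbitrary units) from an Axon 4000B scanner. Incubation used 200 nM of each Ni–NTA-purified, N-terminally polyhistidine- and DsRed-fused transcription factor from E. coli BL21-CodonPlus on a double-stranded custom Agilent array for 1 h at 25 °C, with 50 µM zinc acetate in the buffer, followed by washing.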
row,Sequence,binding signal
1,CTTTGATCATGTTCTCATACTTCTCAGCGTCCAATCATACCGGAGTCACCTAGTGCAG,8040 fluorescence intensity (a.u.)
2,GGGCAACTTCTCTCAGTTTGTTCTTGGGCCTGTTATTTAACGGAGTCACCTAGTGCAG,11000 fluorescence intensity (a.u.)
3,CCCGTTTCGTCGTGCCGTCGTCGTGTCCTCTCTTCAGCCACGGAGTCACCTAGTGCAG,8500 fluorescence intensity (a.u.)
4,GTTTGATCTATTATTTGCAAATCTTGTCAGTTGTAGGATTCGGAGTCACCTAGTGCAG,12200 fluorescence intensity (a.u.)
5,ATGTATGTATGTATGTGTGTGTGTGTATATATATATATATCGGAGTCACCTAGTGCAG,10600 fluorescence intensity (a.u.)
6,ATTCGTTCTGGTTTTCTTCGGGGTTTATTGATTCACGCGACGGAGTCACCTAGTGCAG,18200 fluorescence intensity (a.u.)
7,TGTTTTACCTTGAGTTATCTGATGTTGACTGGTGTGTACTCGGAGTCACCTAGTGCAG,10100 fluorescence intensity (a.u.)
8,TTTAGGTTATAATGCTACACATTTCTTTTGGGGTTCTATTCGGAGTCACCTAGTGCAG,15800 fluorescence intensity (a.u.)
9,CCATTCAAGTTTATTTTTTCTATGGTTGGTTCTTGTATGCCGGAGTCACCTAGTGCAG,8760 fluorescence intensity (a.u.)
10,CCGTCGCGGTCGCCACTCCCTGCCACCACGCCCTTCATCGCGGAGTCACCTAGTGCAG,9050 fluorescence intensity (a.u.)
11,GTCGTTTTTGTTTGACGATTTGTGTCAAGTAATCCTTTTGCGGAGTCACCTAGTGCAG,9680 fluorescence intensity (a.u.)
12,ATTAATTATTTTCGTATCATTTGATTTATGTATACATATACGGAGTCACCTAGTGCAG,8140 fluorescence intensity (a.u.)
13,GTGCTTTGGGCGAAGCCGAGGGGTGGCCGGGGAAGGAGATCGGAGTCACCTAGTGCAG,8750 fluorescence intensity (a.u.)
14,CCATTTCCCGTCGTCTCCACCTCACCACCTCTCTAAACAACGGAGTCACCTAGTGCAG,11600 fluorescence intensity (a.u.)
15,CACGCTCACGTTGCCGCACCTGTCCGGGCAGCCCGCCGGCCGGAGTCACCTAGTGCAG,10300 fluorescence intensity (a.u.)
16,CCCTGATATTTTCCCCTTCTCAGTCCTCACACGTTCTCTTCGGAGTCACCTAGTGCAG,8040 fluorescence intensity (a.u.)
17,CAATGTTATGGAATGGATTATCTCTTTTTTTTTTCAAACCCGGAGTCACCTAGTGCAG,8420 fluorescence intensity (a.u.)
18,AGGTCCCTAGTTCTGTTTTTTTCTGGTAGTCGGTCCGGTCCGGAGTCACCTAGTGCAG,9260 fluorescence intensity (a.u.)
19,GCTAAGGGGATTTTTGGGTTTGGCTGGGTATTACAGGAAACGGAGTCACCTAGTGCAG,11200 fluorescence intensity (a.u.)
20,CTCTCAGGTTGGGGCAATTGGTATTCCATAGTTTTCTTCACGGAGTCACCTAGTGCAG,10000 fluorescence intensity (a.u.)
21,CTCCACTCCTCGCGCCGTACTCTCCATGCCCTCGTCTTGACGGAGTCACCTAGTGCAG,8860 fluorescence intensity (a.u.)

row,Sequence,binding signal
1,CATCCATTCCCCTCCCCTCCCGTCATCCACTCATCCCGTGCGGAGTCACCTAGTGCAG,8030 fluorescence intensity (a.u.)
2,CACTCGCCACCGCCGCCCACCCGCAACTGCCGCCGACTCCCGGAGTCACCTAGTGCAG,10800 fluorescence intensity (a.u.)
3,CTTCAACCATTCTCCTCCTACTGCTTCCTCTTTCTTCTTCCGGAGTCACCTAGTGCAG,9710 fluorescence intensity (a.u.)
4,GGAGGGAGTCGCGGGTGCAGTGTTCTGGTTCGGATCTGAGCGGAGTCACCTAGTGCAG,8960 fluorescence intensity (a.u.)
5,ACCCTTTTCCTCGTATGGTAGTGACTCGTCTCGTTTGCTTCGGAGTCACCTAGTGCAG,8170 fluorescence intensity (a.u.)
6,AGACCCTTAGTGCCTGTTTGTTTCCTCTTCGCCTTTGCATCGGAGTCACCTAGTGCAG,9100 fluorescence intensity (a.u.)
7,CGAATATCCTTTACTTTAGTTTCACACATCCTCTATCATACGGAGTCACCTAGTGCAG,9840 fluorescence intensity (a.u.)
8,AGCACATCCTCGACTTCTTCAACACCTGGAGCCGCAAGGCCGGAGTCACCTAGTGCAG,9430 fluorescence intensity (a.u.)
9,GGGAAATTGGGTAATTAATTAATTATGTGAAAGGGGTGGGCGGAGTCACCTAGTGCAG,12800 fluorescence intensity (a.u.)
10,TATCCACTACTACTACACTCCGTATTCACTAGTATGGCCCCGGAGTCACCTAGTGCAG,9690 fluorescence intensity (a.u.)
11,ACCTCGCTCACTCGCTCGCTCGATCACCGCGACCTCACTCCGGAGTCACCTAGTGCAG,10800 fluorescence intensity (a.u.)
12,ATAGATATGGAAAAATATGAAAGAAAAAAATGATAGTATTCGGAGTCACCTAGTGCAG,16100 fluorescence intensity (a.u.)
13,CAGCACGAGCGGCGAAGTGCTTGGGTGGGCTTCGTCTCCCCGGAGTCACCTAGTGCAG,8200 fluorescence intensity (a.u.)
14,CCTCCAGCCCCGCGCGCATCCGCTCAGCTTGCTCGGCATCCGGAGTCACCTAGTGCAG,9480 fluorescence intensity (a.u.)
15,ATGTAGTCTCTGGTTCGATCTATTTAACACATGGGAGGGACGGAGTCACCTAGTGCAG,10600 fluorescence intensity (a.u.)
16,CAACACTGATGGGCTCATCTTTTCGCTTATACTATTTATACGGAGTCACCTAGTGCAG,8820 fluorescence intensity (a.u.)
17,CCTCTCCCACCATCGTCTCCGCCATCGTTGTCGCCGTCGCCGGAGTCACCTAGTGCAG,9220 fluorescence intensity (a.u.)
18,TATCTCCTATGTCTTCCAGGCTCTCTCTCTCGTTTACTCTCGGAGTCACCTAGTGCAG,9590 fluorescence intensity (a.u.)
19,GAATAGCCACGAGTCAGTCCGCGTACTTTACTATACTTTACGGAGTCACCTAGTGCAG,8270 fluorescence intensity (a.u.)
20,TGGTGGTGGAGGTTTAGGTGAGGGTTTTTGGTTAGGCGATCGGAGTCACCTAGTGCAG,11200 fluorescence intensity (a.u.)
21,ATAAAAACTAGTTTGGTGTGGTAGATGTTTTTTTTTACAACGGAGTCACCTAGTGCAG,9000 fluorescence intensity (a.u.)

# Reformatted with bars between the fields: entries from further up
row | Sequence | binding signal
14 | CCTCCAGCCCCGCGCGCATCCGCTCAGCTTGCTCGGCATCCGGAGTCACCTAGTGCAG | 9480 fluorescence intensity (a.u.)
15 | ATGTAGTCTCTGGTTCGATCTATTTAACACATGGGAGGGACGGAGTCACCTAGTGCAG | 10600 fluorescence intensity (a.u.)
16 | CAACACTGATGGGCTCATCTTTTCGCTTATACTATTTATACGGAGTCACCTAGTGCAG | 8820 fluorescence intensity (a.u.)

# Source: PMC7819943, “Rice protein-binding microarrays: a tool to detect cis-acting elements near promoter regions in rice”
